Source: the supplement of paper PMC10849652
The other results are listed elsewhere or left out.

Protein sequences, listed by entry. Tags and fused reporters are not part of them. Lines headed by an entry give the natural chain unless they say otherwise; changes in a name come on top.
UniProt O95372: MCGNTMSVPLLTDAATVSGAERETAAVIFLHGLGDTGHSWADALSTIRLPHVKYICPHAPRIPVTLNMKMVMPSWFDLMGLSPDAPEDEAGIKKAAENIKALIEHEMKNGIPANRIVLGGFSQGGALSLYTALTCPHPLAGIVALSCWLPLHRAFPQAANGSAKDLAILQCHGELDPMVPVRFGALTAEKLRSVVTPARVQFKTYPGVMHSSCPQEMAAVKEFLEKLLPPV
UniProt Q96GA3: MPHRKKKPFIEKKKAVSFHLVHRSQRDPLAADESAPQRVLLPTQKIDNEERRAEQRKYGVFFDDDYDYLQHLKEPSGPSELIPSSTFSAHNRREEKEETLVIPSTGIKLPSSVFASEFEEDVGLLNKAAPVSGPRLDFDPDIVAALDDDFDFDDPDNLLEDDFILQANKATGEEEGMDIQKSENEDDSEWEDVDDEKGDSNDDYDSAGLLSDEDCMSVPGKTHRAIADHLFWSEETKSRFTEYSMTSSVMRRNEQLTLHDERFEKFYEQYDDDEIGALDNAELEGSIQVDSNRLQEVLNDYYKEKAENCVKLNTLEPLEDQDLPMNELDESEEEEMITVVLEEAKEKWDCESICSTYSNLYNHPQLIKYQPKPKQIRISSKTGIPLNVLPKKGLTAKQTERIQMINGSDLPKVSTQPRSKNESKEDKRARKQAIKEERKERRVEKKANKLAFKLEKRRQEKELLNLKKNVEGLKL
UniProt Q9NQ48: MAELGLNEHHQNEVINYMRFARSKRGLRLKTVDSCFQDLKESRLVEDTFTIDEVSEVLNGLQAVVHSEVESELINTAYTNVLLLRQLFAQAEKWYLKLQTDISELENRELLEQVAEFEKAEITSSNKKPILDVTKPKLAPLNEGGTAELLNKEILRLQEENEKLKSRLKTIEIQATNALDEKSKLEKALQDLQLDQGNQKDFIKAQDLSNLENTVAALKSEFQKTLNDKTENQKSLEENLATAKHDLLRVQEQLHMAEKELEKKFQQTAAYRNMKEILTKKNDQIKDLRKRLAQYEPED
UniProt Q8IZL2, whole entry, looked up: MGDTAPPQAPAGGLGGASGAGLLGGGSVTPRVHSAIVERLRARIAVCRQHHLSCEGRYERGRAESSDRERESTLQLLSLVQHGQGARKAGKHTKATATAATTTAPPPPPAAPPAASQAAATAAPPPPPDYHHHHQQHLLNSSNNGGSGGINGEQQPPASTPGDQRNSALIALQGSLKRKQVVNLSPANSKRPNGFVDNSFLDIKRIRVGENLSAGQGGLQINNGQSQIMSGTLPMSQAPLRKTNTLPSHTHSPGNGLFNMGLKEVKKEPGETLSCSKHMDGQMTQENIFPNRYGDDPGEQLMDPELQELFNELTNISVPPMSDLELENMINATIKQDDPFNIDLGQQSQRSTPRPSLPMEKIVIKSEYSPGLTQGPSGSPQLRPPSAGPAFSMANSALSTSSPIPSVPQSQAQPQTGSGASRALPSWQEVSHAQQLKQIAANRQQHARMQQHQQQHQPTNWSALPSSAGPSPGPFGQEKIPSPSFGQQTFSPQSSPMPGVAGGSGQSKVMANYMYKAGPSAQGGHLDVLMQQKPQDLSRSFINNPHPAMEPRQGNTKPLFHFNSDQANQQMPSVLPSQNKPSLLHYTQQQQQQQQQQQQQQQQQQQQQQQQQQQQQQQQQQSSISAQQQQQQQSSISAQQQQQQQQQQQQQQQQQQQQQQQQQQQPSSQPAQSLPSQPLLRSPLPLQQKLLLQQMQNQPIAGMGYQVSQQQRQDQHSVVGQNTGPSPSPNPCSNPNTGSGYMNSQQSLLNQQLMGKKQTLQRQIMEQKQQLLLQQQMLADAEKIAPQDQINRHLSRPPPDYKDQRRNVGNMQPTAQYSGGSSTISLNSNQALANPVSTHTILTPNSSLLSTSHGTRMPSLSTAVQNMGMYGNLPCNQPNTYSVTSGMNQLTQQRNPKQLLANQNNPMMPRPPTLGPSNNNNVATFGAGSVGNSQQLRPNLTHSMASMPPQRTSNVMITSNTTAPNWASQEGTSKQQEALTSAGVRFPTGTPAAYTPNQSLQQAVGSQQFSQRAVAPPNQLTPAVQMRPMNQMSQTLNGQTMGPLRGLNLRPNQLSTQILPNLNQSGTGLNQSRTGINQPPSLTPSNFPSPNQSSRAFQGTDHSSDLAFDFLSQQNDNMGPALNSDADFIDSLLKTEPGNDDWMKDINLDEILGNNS
UniProt P43366: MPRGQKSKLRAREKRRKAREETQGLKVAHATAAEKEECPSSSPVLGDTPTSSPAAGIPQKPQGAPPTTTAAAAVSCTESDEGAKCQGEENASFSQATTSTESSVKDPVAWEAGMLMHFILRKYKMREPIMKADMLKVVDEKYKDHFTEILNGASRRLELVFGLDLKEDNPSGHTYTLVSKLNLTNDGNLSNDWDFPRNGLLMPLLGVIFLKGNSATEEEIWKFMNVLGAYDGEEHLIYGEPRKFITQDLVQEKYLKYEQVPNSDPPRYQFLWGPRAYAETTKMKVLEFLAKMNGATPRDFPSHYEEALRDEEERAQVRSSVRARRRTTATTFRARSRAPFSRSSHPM
UniProt P46821: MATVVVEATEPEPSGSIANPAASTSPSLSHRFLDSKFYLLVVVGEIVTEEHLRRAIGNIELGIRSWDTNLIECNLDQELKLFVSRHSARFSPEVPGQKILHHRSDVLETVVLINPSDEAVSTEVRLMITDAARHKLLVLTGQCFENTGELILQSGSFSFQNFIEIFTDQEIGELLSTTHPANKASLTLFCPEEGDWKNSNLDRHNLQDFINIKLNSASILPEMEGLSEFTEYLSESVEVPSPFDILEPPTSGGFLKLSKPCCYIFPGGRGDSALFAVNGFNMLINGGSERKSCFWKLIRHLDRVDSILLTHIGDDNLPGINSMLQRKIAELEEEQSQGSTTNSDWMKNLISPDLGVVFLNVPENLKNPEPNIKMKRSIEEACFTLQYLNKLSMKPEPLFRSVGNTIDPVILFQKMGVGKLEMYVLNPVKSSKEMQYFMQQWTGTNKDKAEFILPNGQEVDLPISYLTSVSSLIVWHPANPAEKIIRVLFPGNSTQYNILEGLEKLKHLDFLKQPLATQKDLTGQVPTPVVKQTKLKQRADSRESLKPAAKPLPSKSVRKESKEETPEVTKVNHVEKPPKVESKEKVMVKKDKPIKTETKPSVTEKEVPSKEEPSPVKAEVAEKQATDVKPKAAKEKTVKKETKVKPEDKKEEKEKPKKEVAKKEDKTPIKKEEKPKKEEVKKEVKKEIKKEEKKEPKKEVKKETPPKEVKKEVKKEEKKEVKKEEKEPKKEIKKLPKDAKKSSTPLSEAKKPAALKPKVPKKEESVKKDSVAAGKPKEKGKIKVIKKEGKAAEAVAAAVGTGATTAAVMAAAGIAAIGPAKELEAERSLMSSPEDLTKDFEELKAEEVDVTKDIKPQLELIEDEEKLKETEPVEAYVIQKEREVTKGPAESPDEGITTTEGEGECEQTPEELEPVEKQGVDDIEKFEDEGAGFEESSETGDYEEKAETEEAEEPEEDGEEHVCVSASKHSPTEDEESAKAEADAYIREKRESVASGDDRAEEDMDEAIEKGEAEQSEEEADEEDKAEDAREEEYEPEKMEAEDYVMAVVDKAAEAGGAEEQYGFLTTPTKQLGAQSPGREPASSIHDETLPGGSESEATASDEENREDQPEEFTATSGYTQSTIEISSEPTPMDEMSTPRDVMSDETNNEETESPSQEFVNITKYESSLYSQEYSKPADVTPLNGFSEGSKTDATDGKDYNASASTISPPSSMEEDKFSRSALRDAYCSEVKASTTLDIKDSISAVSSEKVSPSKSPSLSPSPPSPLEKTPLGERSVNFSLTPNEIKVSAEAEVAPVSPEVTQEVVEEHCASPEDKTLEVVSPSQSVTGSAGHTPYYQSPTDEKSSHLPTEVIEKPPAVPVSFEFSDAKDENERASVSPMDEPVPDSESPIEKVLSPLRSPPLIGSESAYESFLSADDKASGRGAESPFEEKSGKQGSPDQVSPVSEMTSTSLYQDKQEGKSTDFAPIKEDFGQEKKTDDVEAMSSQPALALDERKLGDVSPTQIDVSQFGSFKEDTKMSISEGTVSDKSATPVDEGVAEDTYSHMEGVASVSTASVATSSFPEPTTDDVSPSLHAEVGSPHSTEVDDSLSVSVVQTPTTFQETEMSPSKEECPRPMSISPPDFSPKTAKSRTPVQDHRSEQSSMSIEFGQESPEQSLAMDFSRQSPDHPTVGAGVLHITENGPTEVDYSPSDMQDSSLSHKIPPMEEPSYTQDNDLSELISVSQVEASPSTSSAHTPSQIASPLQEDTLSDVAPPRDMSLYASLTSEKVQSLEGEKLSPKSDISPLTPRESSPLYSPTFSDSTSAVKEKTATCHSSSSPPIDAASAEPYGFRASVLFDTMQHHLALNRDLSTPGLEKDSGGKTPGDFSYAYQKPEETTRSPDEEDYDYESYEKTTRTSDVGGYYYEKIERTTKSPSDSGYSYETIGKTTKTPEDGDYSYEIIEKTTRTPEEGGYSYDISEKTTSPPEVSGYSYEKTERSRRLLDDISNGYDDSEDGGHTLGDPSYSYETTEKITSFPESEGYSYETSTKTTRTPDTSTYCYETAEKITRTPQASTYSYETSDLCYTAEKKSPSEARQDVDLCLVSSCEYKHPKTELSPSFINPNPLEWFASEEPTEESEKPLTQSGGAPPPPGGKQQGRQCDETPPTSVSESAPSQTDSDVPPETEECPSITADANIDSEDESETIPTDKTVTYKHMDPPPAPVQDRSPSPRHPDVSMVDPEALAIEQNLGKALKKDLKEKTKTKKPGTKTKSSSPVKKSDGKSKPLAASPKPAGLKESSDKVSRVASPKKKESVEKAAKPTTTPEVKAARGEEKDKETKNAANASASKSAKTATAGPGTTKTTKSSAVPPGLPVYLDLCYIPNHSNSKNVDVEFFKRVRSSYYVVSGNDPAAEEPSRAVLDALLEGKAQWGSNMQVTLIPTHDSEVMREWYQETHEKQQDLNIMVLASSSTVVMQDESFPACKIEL
UniProt Q9Y6D9: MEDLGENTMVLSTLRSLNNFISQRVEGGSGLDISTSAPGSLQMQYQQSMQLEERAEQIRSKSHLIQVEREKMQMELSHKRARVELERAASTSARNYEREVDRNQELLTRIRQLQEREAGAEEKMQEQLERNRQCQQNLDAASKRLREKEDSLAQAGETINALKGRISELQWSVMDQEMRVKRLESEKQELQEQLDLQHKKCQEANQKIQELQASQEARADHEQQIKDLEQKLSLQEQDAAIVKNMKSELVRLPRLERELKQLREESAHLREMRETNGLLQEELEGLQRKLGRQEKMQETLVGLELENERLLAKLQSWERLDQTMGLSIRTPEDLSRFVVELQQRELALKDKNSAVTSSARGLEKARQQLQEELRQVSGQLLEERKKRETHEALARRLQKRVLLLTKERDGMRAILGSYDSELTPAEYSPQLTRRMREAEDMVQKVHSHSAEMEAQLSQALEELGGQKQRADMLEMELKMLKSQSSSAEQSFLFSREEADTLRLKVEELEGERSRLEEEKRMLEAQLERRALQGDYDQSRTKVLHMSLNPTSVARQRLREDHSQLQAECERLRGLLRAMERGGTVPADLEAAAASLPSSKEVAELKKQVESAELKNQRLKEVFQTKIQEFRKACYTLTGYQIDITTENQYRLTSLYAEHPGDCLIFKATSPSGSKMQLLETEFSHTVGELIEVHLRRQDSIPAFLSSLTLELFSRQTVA
UniProt P28482, whole entry, looked up: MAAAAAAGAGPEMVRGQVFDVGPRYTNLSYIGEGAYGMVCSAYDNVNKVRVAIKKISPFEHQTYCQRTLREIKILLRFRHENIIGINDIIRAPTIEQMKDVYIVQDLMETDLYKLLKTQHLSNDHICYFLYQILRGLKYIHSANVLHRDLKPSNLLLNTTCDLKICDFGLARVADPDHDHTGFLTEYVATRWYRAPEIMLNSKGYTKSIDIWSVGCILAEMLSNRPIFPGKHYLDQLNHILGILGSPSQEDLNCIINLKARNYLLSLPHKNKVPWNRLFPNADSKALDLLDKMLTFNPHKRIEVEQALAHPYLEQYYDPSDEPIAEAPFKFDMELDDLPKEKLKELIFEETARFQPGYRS

Legend:
Experiment in all cases: log2 fold change, soluble protein after heating vs DMSO (PISA); higher = thermal stabilisation; K562 lysate, 10 uM; active = over 0.2 and 3.5 SD of the protein, either way, in both replicates (recomputed)
[1] = compound: CN1CC[C@H](c2c(O)cc(O)c3c(=O)cc(-c4ccccc4Cl)oc23)[C@H](O)C1 [alvocidib]
Procedure, shortened: (§1)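 A 30 min treatment with 10 μM compound was applied to crude K562 extract at 1 mg/mL protein in PBS pH 7.4 with 1 mM MgCl2. Heating for 3 min spanned 48°C-58°C, after which aliquots were pooled, adjusted to 0.5% NP-40 at 4°C and spun at 21,000xg for 90 min. TMTpro 16plex LC-MS/MS of the supernatant, with channel sums equalised, gave values recorded as log-two fold change in thermal stability against solvent controls, from duplicates.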

[2] = compound: CN1CCc2c(c3ccccc3n2Cc2ccc(C(=O)NO)cc2)C1 [Tubastatin A]
Procedure, shortened: as §1

[3] = compound: CNC(=O)C1=CC=CC=C1NC2=NC(=NC=C2Cl)NC3=C(C=C(C=C3)N4CCOCC4)OC
Procedure, shortened: as §1

[4] = compound: CNC(=O)c1ccc(Nc2ncc(C(F)(F)F)c(NCc3nccnc3N(C)S(C)(=O)=O)n2)cc1 [defactinib]
Procedure, shortened: as §1

[5] = compound: CNc1nc(-c2ccc3c(N)n[nH]c3c2)cc(N2C[C@@H](C(=O)NC3CCCCC3)CC[C@H]2C)n1
Procedure, shortened: as §1

[6] = compound: COC(=O)N[C@@H](C)CNc1nccc(-c2cn(C(C)C)nc2-c2cc(Cl)cc(NS(C)(=O)=O)c2F)n1 [encorafenib]
Procedure, shortened: as §1

[7] = compound: COC(=O)[C@H](CCSC)NC(=O)C1=C(C=C(C=C1)NC[C@H](CS)N)C2=CC=CC=C2
Procedure, shortened: as §1

[8] = compound: COc1cc(Nc2ncc3c(n2)-c2ccc(Cl)cc2C(c2c(F)cccc2OC)=NC3)ccc1C(=O)O [alisertib]
Procedure, shortened: as §1

[9] = compound: COc1cc2nc(-c3cc(F)ccc3O)nc(N[C@@H]3CNC[C@H]3C(C)(C)O)c2cc1OC
Procedure, shortened: as §1

[10] = compound: COc1cc2ncnc(Nc3ccc(F)c(Cl)c3)c2cc1OCCCN1CCOCC1 [gefitinib]
Procedure, shortened: as §1

Measured: log2 fold change

LYPLA2 (UniProt O95372)
inactive: [1] 0.131 | [2] 0.029 | [3] 0.069 | [4] 0.214 | [5] -0.03 | [6] -0.016 | [7] 0.014 | [8] 0 | [9] -0.083 | [10] -0.181

MAP2K4 isoform 2 (UniProt P45985)
inactive: [1] 0.137 | [2] -0.08 | [3] 0.081 | [4] 0.013 | [5] 0.061 | [6] 0.122 | [7] 0.087 | [8] -0.069 | [9] -0.022 | [10] -0.032

MAGEA1 (UniProt P43355)
inactive: [1] 0.056 | [2] -0.053 | [3] 0.021 | [4] -0.008 | [5] -0.034 | [6] 0.084 | [7] 0.004 | [8] 0.047 | [9] -0.103 | [10] 0.001

LTV1 (UniProt Q96GA3)
inactive: [1] 0.034 | [2] -0.045 | [3] 0.005 | [4] 0.022 | [5] 0.013 | [6] 0.006 | [7] -0.057 | [8] 0.042 | [9] 0.003 | [10] -0.011

MARCHF5 (UniProt Q9NX47)
inactive: [1] -0.045 | [2] 0.038 | [3] 0.004 | [4] -0.009 | [5] 0.025 | [6] -0.026 | [7] 0.074 | [8] 0.062 | [9] -0.006 | [10] 0

MADD isoform 4 (UniProt Q8WXG6)
inactive: [1] -0.016 | [2] -0.036 | [3] -0.005 | [4] 0.006 | [5] -0.002 | [6] 0.036 | [7] -0.008 | [8] -0.013 | [9] 0.033 | [10] 0.002

LZTFL1 (UniProt Q9NQ48)
inactive: [1] 0.014 | [2] -0.028 | [3] -0.015 | [4] 0.005 | [5] 0.002 | [6] -0.002 | [7] -0.033 | [8] -0.019 | [9] 0.005 | [10] 0.008

MAPRE2 (UniProt Q15555)
inactive: [1] 0.043 | [2] -0.081 | [3] 0.025 | [4] 0.011 | [5] -0.071 | [6] 0.02 | [7] 0.093 | [8] 0.045 | [9] -0.017 | [10] 0.041

MACO1 (UniProt Q8N5G2)
inactive: [1] -0.003 | [2] -0.003 | [3] -0.012 | [4] 0.01 | [5] 0.119 | [6] -0.101 | [7] -0.016 | [8] -0.024 | [9] -0.005 | [10] 0.04

MAP1LC3B2 (UniProt A6NCE7)
inactive: [1] 0.014 | [2] 0.01 | [3] -0.04 | [4] 0.024 | [5] 0.015 | [6] -0.046 | [7] -0.018 | [8] -0.011 | [9] 0.008 | [10] 0.017

MAP2K3 isoform 3 (UniProt P46734)
inactive: [1] 0.05 | [2] -0.066 | [3] 0.139 | [4] 0.017 | [5] -0.055 | [6] -0.011 | [7] 0.169 | [8] 0 | [9] -0.171 | [10] -0.087

MAPK8 isoform 3 (UniProt P45983)
inactive: [1] 0.01 | [2] -0.111 | [4] -0.07 | [5] -0.144 | [6] 0.135 | [7] 0 | [8] -0.022 | [9] 0.003 | [10] -0.042
active: [3] 0.541

MAP7D3 (UniProt Q8IWC1)
active: [4] -0.379
inactive: [1] -0.063 | [2] 0.015 | [3] 0.037 | [5] -0.011 | [6] 0.223 | [7] 0.013 | [8] 0.01 | [9] -0.02 | [10] 0.017

MAPKAPK2 (UniProt P49137)
inactive: [1] 0.069 | [2] -0.078 | [3] 0.077 | [4] -0.059 | [5] 0.025 | [6] -0.026 | [7] 0.046 | [8] -0.023 | [9] 0.114 | [10] -0.013

MAN1A2 (UniProt O60476)
inactive: [1] 0.078 | [2] 0.095 | [3] 0.012 | [4] -0.025 | [5] -0.003 | [6] 0.045 | [7] -0.013 | [8] -0.06 | [9] 0.043 | [10] -0.023

MAP11 (UniProt Q8WVR3)
inactive: [1] -0.117 | [2] -0.091 | [3] 0.021 | [4] 0.076 | [5] 0.004 | [6] -0.058 | [7] -0.084 | [8] -0.001 | [9] -0.025 | [10] -0.046

MACF1 isoform 3 (UniProt Q9UPN3)
inactive: [1] -0.007 | [2] -0.032 | [3] 0 | [4] -0.006 | [5] -0.005 | [6] 0.003 | [7] 0.026 | [8] 0.002 | [9] -0.016 | [10] -0.003

MAPK8IP3 (UniProt Q9UPT6)
inactive: [1] 0.022 | [2] 0.017 | [3] 0.018 | [4] 0.018 | [5] -0.026 | [6] 0.024 | [7] -0.015 | [8] 0.02 | [9] 0.025 | [10] 0.052

MAGEA9 (UniProt P43362)
inactive: [1] -0.007 | [2] 0.019 | [3] 0.016 | [4] -0.006 | [5] 0.103 | [6] 0.025 | [7] -0.024 | [8] 0.022 | [9] 0.022 | [10] -0.005

MAP4 (UniProt E7EVA0)
inactive: [1] -0.074 | [2] 0.1 | [3] 0 | [4] 0.01 | [5] 0.037 | [6] -0.04 | [7] -0.117 | [8] -0.028 | [9] 0.054 | [10] 0.098

2 successive records already listed:
MACF1 isoform 3 (UniProt Q9UPN3)
inactive: [1] -0.007 | [2] -0.032 | [3] 0 | [4] -0.006 | [5] -0.005 | [6] 0.003 | [7] 0.026 | [8] 0.002 | [9] -0.016 | [10] -0.003

MAPK8IP3 (UniProt Q9UPT6)
inactive: [1] 0.022 | [2] 0.017 | [3] 0.018 | [4] 0.018 | [5] -0.026 | [6] 0.024 | [7] -0.015 | [8] 0.02 | [9] 0.025 | [10] 0.052

(continued)

MAGI1 isoform 6 (UniProt Q96QZ7)
inactive: [1] -0.137 | [2] 0.026 | [3] -0.055 | [4] -0.009 | [5] 0.038 | [6] -0.002 | [7] -0.003 | [8] 0.033 | [9] 0.008 | [10] 0.012

MAML2 (UniProt Q8IZL2)
inactive: [1] 0.035 | [2] 0.011 | [3] 0.04 | [4] 0.007 | [5] 0.134 | [6] 0.151 | [7] -0.013 | [8] 0.026 | [9] 0.078 | [10] 0.071

MAGEB1 (UniProt P43366)
inactive: [1] 0.021 | [2] -0.12 | [3] -0.011 | [4] 0.004 | [5] -0.027 | [6] 0.037 | [7] 0.085 | [8] -0.003 | [9] -0.024 | [10] -0.011

MAP1B (UniProt P46821)
inactive: [1] 0.013 | [2] 0.032 | [3] 0.011 | [4] -0.011 | [5] -0.006 | [6] -0.013 | [7] -0.01 | [8] -0.025 | [9] 0.012 | [10] -0.021

MAD1L1 (UniProt Q9Y6D9)
inactive: [1] -0.013 | [2] -0.004 | [3] 0.02 | [4] -0.032 | [5] 0.212 | [6] 0.067 | [7] 0.105 | [8] 0.008 | [9] -0.029 | [10] -0.007

MAPK1 (UniProt P28482)
inactive: [1] 0.051 | [2] 0.061 | [4] 0.091 | [5] -0.007 | [6] -0.062 | [7] 0.031 | [8] -0.038 | [9] 0.043 | [10] 0.014
active: [3] 0.242

MAK16 (UniProt Q9BXY0)
inactive: [1] -0.018 | [2] 0.085 | [3] -0.095 | [4] 0.071 | [5] -0.071 | [6] -0.022 | [7] 0.021 | [8] -0.092 | [9] -0.02 | [10] -0.118
